These are yes or no findings as the source states them, for the method shown. Binding seen in cells or lysates may run through a third protein. Some results given as binding are weak or reduced against the parent protein; the word gives no strength.
Biological target: T1, Glial cell line-derived neurotrophic factor (GDNF) in RBL-2H3 cells (UniProt Q07731)
T1 sequence: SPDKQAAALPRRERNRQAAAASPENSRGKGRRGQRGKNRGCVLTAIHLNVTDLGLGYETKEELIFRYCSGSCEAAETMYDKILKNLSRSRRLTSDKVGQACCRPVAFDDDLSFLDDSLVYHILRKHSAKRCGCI
Assay: co-IP; cell lysates incubated overnight at 4 °C with magnetic beads bound to antibodies against GDNF or CaMKⅡ; beads washed five times with lysis buffer; SDS-PAGE and Western blot

- binding: binds
B1: GDNF family receptor α1 (GFRα1), in RBL-2H3 cells (receptor, UniProt Q62997 25-430)
chain: DRLDCVKASDQCLKEQSCSTKYRTLRQCVAGKETNFSLTSGLEAKDECRSAMEALKQKSLYNCRCKRGMKKEKNCLRIYWSMYQSLQGNDLLEDSPYEPVNSRLSDIFRAVPFISDVFQQVEHISKGNNCLDAAKACNLDDTCKKYRSAYITPCTTSMSNEVCNRRKCHKALRQFFDKVPAKHSYGMLFCSCRDIACTERRRQTIVPVCSYEERERPNCLSLQDSCKTNYICRSRLADFFTNCQPESRSVSNCLKENYADCLLAYSGLIGTVMTPNYVDSSSLSVAPWCDCSNSGNDLEDCLKFLNFFKDNTCLKNAIQAFGNGSDVTMWQPAPPVQTTTATTTTAFRVKNKPLGPAGSENEIPTHVLPPCANLQAQKLKSNVSGSTHLCLSDSDFGKDGLAGASS
